Holding throughout (assay): co-IP
The target in test [1] is T1, Endogenous MYSM1 (human (endogenous in MCF-7 and T47D)) (UniProt Q5VVJ2).
T1 sequence: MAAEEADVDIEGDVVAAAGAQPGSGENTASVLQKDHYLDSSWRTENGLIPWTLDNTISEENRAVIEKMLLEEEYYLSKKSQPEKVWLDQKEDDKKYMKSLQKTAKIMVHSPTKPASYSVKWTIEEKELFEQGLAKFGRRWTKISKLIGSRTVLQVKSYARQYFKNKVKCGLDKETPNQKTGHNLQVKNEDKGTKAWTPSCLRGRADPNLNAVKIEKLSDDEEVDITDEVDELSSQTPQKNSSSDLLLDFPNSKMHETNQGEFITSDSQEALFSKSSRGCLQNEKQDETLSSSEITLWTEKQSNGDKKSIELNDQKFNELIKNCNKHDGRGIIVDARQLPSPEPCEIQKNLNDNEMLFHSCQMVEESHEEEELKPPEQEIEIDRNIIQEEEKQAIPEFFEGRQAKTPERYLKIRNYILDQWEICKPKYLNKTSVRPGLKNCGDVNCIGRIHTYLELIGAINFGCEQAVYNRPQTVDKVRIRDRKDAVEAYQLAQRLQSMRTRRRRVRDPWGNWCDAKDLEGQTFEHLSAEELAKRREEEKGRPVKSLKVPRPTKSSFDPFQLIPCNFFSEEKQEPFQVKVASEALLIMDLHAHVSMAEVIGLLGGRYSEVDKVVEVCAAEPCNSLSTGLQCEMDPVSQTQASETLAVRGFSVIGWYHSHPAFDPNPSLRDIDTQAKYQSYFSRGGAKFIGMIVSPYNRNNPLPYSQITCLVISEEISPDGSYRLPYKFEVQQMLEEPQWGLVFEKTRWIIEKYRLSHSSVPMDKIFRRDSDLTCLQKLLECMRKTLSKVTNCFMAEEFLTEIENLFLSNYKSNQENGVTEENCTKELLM

Protein sequences, listed by entry. Tags and fused reporters are not part of them.
UniProt P03372: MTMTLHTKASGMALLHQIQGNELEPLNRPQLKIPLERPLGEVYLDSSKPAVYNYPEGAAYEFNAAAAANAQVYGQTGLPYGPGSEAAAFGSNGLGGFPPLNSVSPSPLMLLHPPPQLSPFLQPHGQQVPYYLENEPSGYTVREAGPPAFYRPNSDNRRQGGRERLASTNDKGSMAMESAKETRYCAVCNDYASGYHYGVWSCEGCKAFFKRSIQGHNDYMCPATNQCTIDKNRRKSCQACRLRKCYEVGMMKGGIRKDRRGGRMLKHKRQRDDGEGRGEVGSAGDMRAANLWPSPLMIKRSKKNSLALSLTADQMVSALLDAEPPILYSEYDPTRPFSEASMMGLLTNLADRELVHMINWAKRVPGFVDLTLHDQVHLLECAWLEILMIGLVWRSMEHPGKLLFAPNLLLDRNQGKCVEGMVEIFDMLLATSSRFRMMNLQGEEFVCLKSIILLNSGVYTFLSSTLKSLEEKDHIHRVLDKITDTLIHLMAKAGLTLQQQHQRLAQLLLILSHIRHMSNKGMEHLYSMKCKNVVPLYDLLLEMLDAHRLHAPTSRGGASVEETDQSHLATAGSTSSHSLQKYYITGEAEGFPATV

Test [2] deals with T2, FLAG-tagged MYSM1 (Myb like, SWIRM and MPN domains 1), full length (human) (UniProt Q5VVJ2).
T2 sequence: T1 sequence

Test [3] has as its target T2, FLAG-tagged MYSM1 (Myb like, SWIRM and MPN domains 1), full length (human). This is another data set of the same source.

Read-outs that look alike come from different tables or passages of the source. These are yes or no findings as the source states them, for the method shown. Binding seen in cells or lysates may run through a third protein. Some entries that bind do so weakly or less than the wild type. For part of these data: Sequences can lack the tags named with a protein.

With “Endogenous estrogen receptor alpha (ERα) (from UniProt P03372 1-595)”, the binding entry in test [1] is given as “binds”.

Take “Estrogen receptor alpha (ERα), ectopically expressed (from UniProt P03372 1-595)”: the binding result in test [2] and in test [3] was “binds” throughout.

For the origin of these results see publication doi:10.1101/2022.12.23.521780.
